{"source": "PubChem BioAssay AID2417", "about": "(National Center for Advancing Translational Sciences (NCATS), 2010)", "note": "The whole screen tested about 140,000 compounds, of which about 4,300 (3.1%) were called active. The shares of active, inactive and inconclusive entries below differ from those in the screen.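 Rule for the calls: active = readout at or below -70, meaning at least 70% loss of cells showing the perinucleolar compartment, a nuclear body marking cancer cells; inconclusive = readout between -30 and a set limit; inactive = the rest.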", "data": [{"assay": "High Content Assay for Compounds that inhibit the Assembly of the Perinucleolar Compartment;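 note: plate controls were DMSO wells for no effect and camptothecin positive control wells for full effect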", "settings": "PC3M PTB-GFP, PNC prevalence imaging, 16 h; at 10 µM; hits give low values", "method_in_brief": "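PC3M cells stably expressing PTB-GFP, 750–1000 cells/well, treated 16 h at 37 °C with compound (23 nl of library stock), in duplicate. After paraformaldehyde fixation and Hoechst stain, imaged at 20x; PNC prevalence scored by image analysis.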", "values": [{"smiles": "COc1ccc(NC(=O)c2sc(Cl)nc2-c2ccccc2)cc1", "activity change (PNC), negative = inhibition": "inconclusive: -44.4%"}, {"smiles": "O=C(NC(=O)c1ccc(Cl)cc1)OC1CCCCC1", "activity change (PNC), negative = inhibition": "inconclusive: -62.7%"}, {"smiles": "N#Cc1c(NC(=O)Cn2c(=O)oc3ccccc32)oc(-c2ccccc2)c1-c1ccccc1", "activity change (PNC), negative = inhibition": "inactive: 27.7%"}, {"smiles": "COCCNC(=S)N1CCOCC1", "activity change (PNC), negative = inhibition": "inactive: -13.8%"}, {"smiles": "CC1=C(C(=O)Nc2cccc(F)c2)C(c2ccsc2)C2=C(CC(C)(C)CC2=O)N1", "note": "(stereo not drawn)", "activity change (PNC), negative = inhibition": "active: -81.5%"}, {"smiles": "Cc1ccccc1-n1c(SCC(N)=O)nc2sc(-c3ccccc3)cc2c1=O", "activity change (PNC), negative = inhibition": "inconclusive: -33.7%"}, {"smiles": "COc1ccc(OC)c(NC(=O)CSc2nnc(CNc3ccc(C)cc3C)o2)c1", "activity change (PNC), negative = inhibition": "inactive: 12.5%"}, {"smiles": "CCOc1cc(C(=S)N2CCCCC2)ccc1OS(=O)(=O)c1ccc(Cl)cc1", "activity change (PNC), negative = inhibition": "inactive: 75.9%"}, {"smiles": "C#CC1CN(Cc2ccccc2)CC(C#C)N1C", "note": "(stereo not drawn)", "activity change (PNC), negative = inhibition": "inactive: 59.5%"}, {"smiles": "COc1ccc(-c2c(C#N)c(N)nc3c2CCc2ccccc2-3)cc1OC", "activity change (PNC), negative = inhibition": "inconclusive: -40.9%"}, {"smiles": "CCOc1ccc(-c2nnn(CC(=O)NCc3ccco3)n2)cc1OCC", "activity change (PNC), negative = inhibition": "active: -100%"}, {"smiles": "CC(=O)c1ccc(N2CCN(c3ccc(S(=O)(=O)N4CCN(C)CC4)cn3)CC2)cc1", "activity change (PNC), negative = inhibition": "inconclusive: -57.1%"}, {"smiles": "CCn1cc([N+](=O)[O-])c(C(=O)Nc2nc(-c3ccc(C)cc3)c(C)s2)n1", "activity change (PNC), negative = inhibition": "inconclusive: -66.4%"}, {"smiles": "CCOC(=O)c1ccccc1NS(=O)(=O)c1ccc(C)cc1", "activity change (PNC), negative = inhibition": "inconclusive: -32.1%"}, {"smiles": "CCn1c(SCC(=O)N2CCN(c3ccc(Cl)cc3)CC2)nc2ccccc2c1=O", "activity change (PNC), negative = inhibition": "inconclusive: -42%"}, {"smiles": "Cc1cc(C)nc(SCc2nnc(SCC(=O)Nc3c(C)cccc3C)o2)n1", "activity change (PNC), negative = inhibition": "inconclusive: -67%"}, {"smiles": "CCNC(=O)NC1(C(=O)Nc2ccc3c(c2)CCC3)CCCCC1", "activity change (PNC), negative = inhibition": "inconclusive: -54.4%"}, {"smiles": "Cc1cc(N/C=C\\c2nnnn2-c2ccc(F)cc2)no1", "activity change (PNC), negative = inhibition": "inconclusive: -58.5%"}, {"smiles": "COc1cc(C)c2occ(/C(C)=N\\O)c2c1", "activity change (PNC), negative = inhibition": "inconclusive: -39.2%"}, {"smiles": "COC(=O)C(C)Sc1nc2c(c(=O)[nH]c(=O)n2C)n1CCC(C)C", "note": "(stereo not drawn)", "activity change (PNC), negative = inhibition": "inactive: -0.389%"}, {"smiles": "CCC(=O)Nc1ccccc1C(=O)C(=O)Nc1ccccc1", "activity change (PNC), negative = inhibition": "inactive: 42.4%"}, {"smiles": "COC(=O)N1CCN(c2ccc(OC)cc2)CC1", "activity change (PNC), negative = inhibition": "inactive: 16.8%"}, {"smiles": "COc1ccc(N2CCN(C(=O)CC3NC4CCCCC4NC3=O)CC2)cc1", "note": "(stereo not drawn)", "activity change (PNC), negative = inhibition": "inactive: 34.3%"}, {"smiles": "O=C(CSc1nnnn1Cc1ccccc1)N1CCN(c2ccccc2)CC1", "activity change (PNC), negative = inhibition": "inconclusive: -50.1%"}, {"smiles": "COc1ccc(NC(=O)C(=O)NCCO)cc1Cl", "activity change (PNC), negative = inhibition": "inactive: 90.3%"}, {"smiles": "NS(=O)(=O)c1ccc(CNC(=O)CCC2CCCCC2)cc1", "activity change (PNC), negative = inhibition": "inconclusive: -38.1%"}, {"smiles": "CCSc1nc2[nH]ncc2c(=O)[nH]1", "activity change (PNC), negative = inhibition": "active: -87.2%"}, {"smiles": "Nc1ccc2nc(-c3cc(Cl)c(N)c(Cl)c3)[nH]c2c1", "activity change (PNC), negative = inhibition": "inconclusive: -32.8%"}, {"smiles": "CNc1nc2cc([N+](=O)[O-])c([N+](=O)[O-])cc2nc1NC", "activity change (PNC), negative = inhibition": "inconclusive: -40.9%"}, {"smiles": "O=C1C2CC=CCC2C(=O)N1Cc1ccccc1", "note": "(stereo not drawn)", "activity change (PNC), negative = inhibition": "inconclusive: -32.6%"}, {"smiles": "CCC(=O)NC(=S)Nc1cccc(Cl)c1N1CCCCC1", "activity change (PNC), negative = inhibition": "inconclusive: -34.3%"}, {"smiles": "CCC(C)[C@@H](NC(=O)OC(C)(C)C)c1nnc(S(=O)(=O)Cc2cccc(C)c2)o1", "note": "(stereo partly drawn)", "activity change (PNC), negative = inhibition": "inactive: 6.06%"}, {"smiles": "CC1CCC2C(=O)N(c3ccc(C(=O)NCc4ccccc4)cc3)C(=O)C2C1", "note": "(stereo not drawn)", "activity change (PNC), negative = inhibition": "inactive: -3.27%"}, {"smiles": "CC(=O)c1ccc(NC(=O)COC(=O)c2c3c(nc4ccccc24)/C(=C\\c2cccs2)CCC3)cc1", "activity change (PNC), negative = inhibition": "inconclusive: -40.3%"}, {"smiles": "O=c1[nH]cc(F)c(=O)[nH]1", "activity change (PNC), negative = inhibition": "active: -115%"}, {"smiles": "COc1ccc(C2CC(c3ccccc3)n3nnnc3N2)cc1", "note": "(stereo not drawn)", "activity change (PNC), negative = inhibition": "active: -111%"}, {"smiles": "CC(=O)c1nc(N2C(=O)CC(Cc3ccccc3)C2=O)sc1C", "note": "(stereo not drawn)", "activity change (PNC), negative = inhibition": "inactive: 13.6%"}, {"smiles": "Cc1ccc(-n2c3c(cc(C(=O)Nc4cccc(C)n4)c2=O)C(=O)CCC3)cc1", "activity change (PNC), negative = inhibition": "inconclusive: -32.7%"}, {"smiles": "O=C1CC(N2CCN(c3ccccc3Cl)CC2)C(=O)N1c1ccc(F)cc1", "note": "(stereo not drawn)", "activity change (PNC), negative = inhibition": "inconclusive: -51.9%"}, {"smiles": "Cc1ccc(C)c(S(=O)(=O)Nc2ccc(S(=O)(=O)Nc3onc(C)c3C)cc2)c1", "activity change (PNC), negative = inhibition": "inconclusive: -73.2%"}, {"smiles": "Cc1cccc(CN2CCc3c(OCC(=O)NCc4ccco4)cccc3C2=O)c1", "activity change (PNC), negative = inhibition": "inactive: -25.8%"}, {"smiles": "COc1ccc(Cc2nnc(SCC(=O)N3CCN(c4ccccc4)CC3)o2)cc1", "activity change (PNC), negative = inhibition": "inconclusive: -75.3%"}, {"smiles": "CCCn1c(SCC(=O)c2c(C)[nH]c(C)c2C(=O)OCC)nc2ccccc21", "activity change (PNC), negative = inhibition": "inactive: -17.2%"}, {"smiles": "Cc1ccc(-c2nc3cccnc3o2)cc1NC(=O)COc1ccc(Cl)cc1C", "activity change (PNC), negative = inhibition": "inactive: 9.19%"}, {"smiles": "COc1ccc(CNc2nc3ccccc3n2CCN2CCOCC2)cc1", "activity change (PNC), negative = inhibition": "inconclusive: -62.1%"}, {"smiles": "O=S(=O)(CCc1ccccc1)/N=C/c1cccs1", "activity change (PNC), negative = inhibition": "active: -103%"}, {"smiles": "CCC(=O)Nc1ccc(-c2nc(-c3ccccc3)n(CC(=O)N3CCCCC3)n2)cc1", "activity change (PNC), negative = inhibition": "inactive: 5.52%"}, {"smiles": "Cc1nc(NC(=O)/C=C/c2ccccc2)sc1C(=O)N(C)C", "activity change (PNC), negative = inhibition": "inconclusive: -36.5%"}, {"smiles": "Cc1ccc(C(=O)COC(=O)CNC(=O)Cc2ccccc2)cc1[N+](=O)[O-]", "activity change (PNC), negative = inhibition": "inconclusive: -33.4%"}, {"smiles": "CC(=O)c1ccc(NC(=O)Nc2ccccc2)cc1", "activity change (PNC), negative = inhibition": "inconclusive: -39.3%"}, {"smiles": "O=C(C1c2ccccc2Oc2ccccc21)N1CCN(c2ccc(Cl)cc2)CC1", "activity change (PNC), negative = inhibition": "active: -88.6%"}, {"smiles": "Cc1cccn2cc(CNS(=O)(=O)c3cccc(F)c3)nc12", "activity change (PNC), negative = inhibition": "inconclusive: -46.2%"}, {"smiles": "O=C(CSc1ccc(Cl)cc1)Nc1ccc(-c2nc3ccccc3[nH]2)cc1", "activity change (PNC), negative = inhibition": "inactive: 7.09%"}, {"smiles": "Cc1cccc(CCNS(=O)(=O)c2ccc(S(=O)(=O)N3CCCCC3)cc2)c1", "activity change (PNC), negative = inhibition": "inactive: 14.8%"}, {"smiles": "N/C(=N\\OC(=O)CCCc1ccccc1)c1cccnc1", "activity change (PNC), negative = inhibition": "inconclusive: -43.7%"}, {"smiles": "CCOc1ccc2nc(NC(=O)c3ccc(S(=O)(=O)N4CCOCC4)cc3)sc2c1", "activity change (PNC), negative = inhibition": "inactive: 0.442%"}, {"smiles": "CCOC(=O)C1=C(NC#N)OC(C)=C(C)C1c1ccc(O)cc1", "note": "(stereo not drawn)", "activity change (PNC), negative = inhibition": "inconclusive: -49.5%"}, {"smiles": "O=C(NC1(C(F)(F)F)NC(=O)N(C2CCCC2)C1=O)C1CC1", "note": "(stereo not drawn)", "activity change (PNC), negative = inhibition": "inactive: -0.0982%"}]}]}
